Experimental data taken from patent publication US20150174057A1, “COMPOSITIONS AND METHODS FOR THE PREVENTION AND TREATMENT OF ORAL DISEASES” (priority 2013, published 2015).
Some of these results come from one statement about several compounds together. Some ranges recur; such a range may be that of the whole group of compounds.

System: oral bacteria obtained from a human subject with oral inflammation
Assay: Growth of oral bacteria from a subject with oral inflammation in liquid culture
Type: cell-based
Conditions: preservatives at the national recommended concentrations, 18 hours culture at 37° C.

Compound	growth inhibiting effect
O=C(O)c1ccccc1 [benzoic acid]	15-35%
Oc1cc(Cl)ccc1Oc1ccc(Cl)cc1Cl [triclosan]	15-35%
